Literature values in US20180064146A1, “METHOD FOR THE SURFACE DECONTAMINATION OF PACKAGED SOLID FOOD” (priority 2015, published 2018).
Some results were stated once for a whole list of compounds, not compound by compound.

Test system: Gram-positive bacteria
Details: vapours; Gram-positive bacteria on cabbage leaf

## CC(C)=CCCC(C)=CC=O [Citral]
  bacterial reduction: up to 6.5 log CFU/2 cm^2

## C=CC(C)(O)CCC=C(C)C (centres unmarked) [Linalool]
  bacterial reduction: up to 6.5 log CFU/2 cm^2
